Reference: doi:10.1101/2021.05.01.442157
No constants are given. Whether binding was seen depends on the method and setting. In cells and extracts the contact can be indirect. Some binding calls cover weakened binding; strength is not graded here. For some of these results: Tags and fused reporters may be left off the sequences shown. Blank lines part the entries; values can stand above or below the molecule they belong to.

Chains of the proteins cited; added tags and fusions are not shown. Residues count along the entry.
UniProt Q61790, residues 24-521: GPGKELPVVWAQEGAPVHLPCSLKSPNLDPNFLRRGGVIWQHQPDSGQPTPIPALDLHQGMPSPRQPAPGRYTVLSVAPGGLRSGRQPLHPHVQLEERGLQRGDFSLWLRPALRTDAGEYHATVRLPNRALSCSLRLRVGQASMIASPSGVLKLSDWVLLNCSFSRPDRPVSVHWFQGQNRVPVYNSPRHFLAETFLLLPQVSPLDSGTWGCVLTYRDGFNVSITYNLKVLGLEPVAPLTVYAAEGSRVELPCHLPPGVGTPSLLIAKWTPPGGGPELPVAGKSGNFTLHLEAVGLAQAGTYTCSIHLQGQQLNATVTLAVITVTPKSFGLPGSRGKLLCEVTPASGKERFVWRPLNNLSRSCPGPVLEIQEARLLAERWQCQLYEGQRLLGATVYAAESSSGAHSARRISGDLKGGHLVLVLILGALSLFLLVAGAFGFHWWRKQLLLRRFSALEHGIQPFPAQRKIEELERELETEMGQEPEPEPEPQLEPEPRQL

Columns and labels:
[1] = biological target: T1, FLAG-Aplp1 full-length, in HEK293FT lysate (UniProt Q03157); test: co-IP
T1 sequence: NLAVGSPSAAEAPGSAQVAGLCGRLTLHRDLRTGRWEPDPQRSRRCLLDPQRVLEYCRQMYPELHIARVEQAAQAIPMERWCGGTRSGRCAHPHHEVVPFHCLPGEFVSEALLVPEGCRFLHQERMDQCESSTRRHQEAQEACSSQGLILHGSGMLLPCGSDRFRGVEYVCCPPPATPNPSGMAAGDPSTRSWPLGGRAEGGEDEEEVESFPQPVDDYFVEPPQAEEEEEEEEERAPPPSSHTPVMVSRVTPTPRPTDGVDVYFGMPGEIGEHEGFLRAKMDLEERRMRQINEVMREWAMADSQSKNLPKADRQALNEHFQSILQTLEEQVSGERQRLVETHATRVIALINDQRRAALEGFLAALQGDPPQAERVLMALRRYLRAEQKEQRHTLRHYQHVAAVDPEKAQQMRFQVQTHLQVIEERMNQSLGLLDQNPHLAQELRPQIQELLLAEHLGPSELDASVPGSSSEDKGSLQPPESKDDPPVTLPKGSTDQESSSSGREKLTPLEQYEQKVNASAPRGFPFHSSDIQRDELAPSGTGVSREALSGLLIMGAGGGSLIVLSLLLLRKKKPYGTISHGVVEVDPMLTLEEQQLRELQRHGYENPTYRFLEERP

[2] = biological target: T2, Aplp1, endogenous in mouse brain (mouse (endogenous in mouse brain)) (UniProt Q03157); test: co-IP
T2 sequence: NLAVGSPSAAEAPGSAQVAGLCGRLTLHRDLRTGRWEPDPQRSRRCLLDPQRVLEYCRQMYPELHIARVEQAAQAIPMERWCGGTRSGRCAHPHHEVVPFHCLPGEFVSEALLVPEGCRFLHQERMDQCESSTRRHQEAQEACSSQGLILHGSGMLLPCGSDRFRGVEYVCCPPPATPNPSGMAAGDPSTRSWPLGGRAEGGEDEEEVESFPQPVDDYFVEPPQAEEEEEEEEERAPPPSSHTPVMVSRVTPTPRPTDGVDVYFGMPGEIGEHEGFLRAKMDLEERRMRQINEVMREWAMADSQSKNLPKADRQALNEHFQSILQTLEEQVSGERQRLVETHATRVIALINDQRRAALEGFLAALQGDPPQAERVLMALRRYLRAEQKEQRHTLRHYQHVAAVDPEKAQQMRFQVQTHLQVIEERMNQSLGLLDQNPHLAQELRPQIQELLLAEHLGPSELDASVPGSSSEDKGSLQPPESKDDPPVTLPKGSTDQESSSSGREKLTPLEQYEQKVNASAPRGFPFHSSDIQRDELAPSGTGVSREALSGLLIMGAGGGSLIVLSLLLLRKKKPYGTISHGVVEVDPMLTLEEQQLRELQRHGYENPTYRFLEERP

[3] = biological target: Lag3, endogenous in mouse brain (mouse (endogenous in mouse brain)) (UniProt Q61790); test: co-IP
[4] = biological target: Lag3, endogenous in mouse brain (mouse (endogenous in mouse brain)) (UniProt Q61790); test: proximity ligation

binding [1]: binds
Molecule: Lag3-Myc full-length, in HEK293FT lysate (from UniProt Q61790) (receptor)

binding [2]: binds
Molecule: Lag3, endogenous in mouse brain (from UniProt Q61790)

binding [3]: binds
binding [4]: binds
B1: Aplp1, endogenous in mouse brain (protein, UniProt Q03157)
chain: NLAVGSPSAAEAPGSAQVAGLCGRLTLHRDLRTGRWEPDPQRSRRCLLDPQRVLEYCRQMYPELHIARVEQAAQAIPMERWCGGTRSGRCAHPHHEVVPFHCLPGEFVSEALLVPEGCRFLHQERMDQCESSTRRHQEAQEACSSQGLILHGSGMLLPCGSDRFRGVEYVCCPPPATPNPSGMAAGDPSTRSWPLGGRAEGGEDEEEVESFPQPVDDYFVEPPQAEEEEEEEEERAPPPSSHTPVMVSRVTPTPRPTDGVDVYFGMPGEIGEHEGFLRAKMDLEERRMRQINEVMREWAMADSQSKNLPKADRQALNEHFQSILQTLEEQVSGERQRLVETHATRVIALINDQRRAALEGFLAALQGDPPQAERVLMALRRYLRAEQKEQRHTLRHYQHVAAVDPEKAQQMRFQVQTHLQVIEERMNQSLGLLDQNPHLAQELRPQIQELLLAEHLGPSELDASVPGSSSEDKGSLQPPESKDDPPVTLPKGSTDQESSSSGREKLTPLEQYEQKVNASAPRGFPFHSSDIQRDELAPSGTGVSREALSGLLIMGAGGGSLIVLSLLLLRKKKPYGTISHGVVEVDPMLTLEEQQLRELQRHGYENPTYRFLEERP
